{"source": "PubChem BioAssay AID2685", "about": "(National Center for Advancing Translational Sciences (NCATS), 2010)", "note": "About 2,100 (0.66%) of roughly 320,000 compounds were called active. Inconclusive results, whose numbers are uncertain, are shown with a selection of clear calls. The call rests on the fitted dose curve; in most records, active means well fitted inhibition curve with a large enough effect in the signal ratio, with a control signal flat (not every such curve was filed as active); inconclusive means small, poorly fitted or top-dose-only effect, or effect the other way, or a change in a side signal; inactive means flat fitted curve, though single readings scatter; the % refers to the signal ratio. Potencies of inconclusive entries are doubtful fits and often do not repeat. On the % scale 0 is the no-effect control and ±100 the full control effect; potency means the concentration at half of the fitted maximal effect.", "data": [{"assay": "qHTS Assay for Lipid Storage Modulators in Drosophila S3 Cells", "details": "BODIPY lipid droplet fluorescence, 18-24 h, cells fed with added oleic acid; lipid storage change, negative = inhibition: at 46.1 µM (top of the series) unless noted", "in_short": "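Laser-scanning cytometry quantifies lipid droplet accumulation (500–530 nm total intensity; droplet/cell object ratio) in oleic acid-fed (400 uM added) Drosophila S3 cells treated with a concentration series. 20 uM Triacsin C defined 100% inhibition.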", "values": [{"smiles": "CSc1ccc(CNC(=O)Cc2ccc(NC(=O)C3=C(C)OCCS3)cc2)cc1", "lipid storage change, negative = inhibition": "inconclusive: 68.4%"}, {"smiles": "CCSCc1nnc(SCC(=O)Nc2nc3ccccc3s2)n1C", "Potency": "inconclusive: 29.1 µM [falling, single point]"}, {"smiles": "CS(=O)(=O)N(CC(=O)N1CCC(C(N)=O)CC1)c1cc(C(F)(F)F)ccc1Cl", "lipid storage change, negative = inhibition": "inconclusive: -14.2%"}, {"smiles": "Cn1c(=O)c(C(=O)NCc2ccc(Cl)cc2)c(O)c2ccccc21", "lipid storage change, negative = inhibition": "inconclusive: 12.3%"}, {"smiles": "COc1ccc(C(=O)CSc2nc3c(c(=O)n(C)c(=O)n3C)n2C)cc1", "lipid storage change, negative = inhibition": "inconclusive: 15.1%"}, {"smiles": "CNC(=O)/C(=C\\c1ccco1)NC(=O)c1ccco1", "Potency": "inconclusive: 23.1 µM [activator, partial curve]"}, {"smiles": "CCN1C(=NCc2cc(OC)c(OC)c(OC)c2)N[C@@H](c2cccc(F)c2)C(C(=O)OC)=C1C", "lipid storage change, negative = inhibition": "inconclusive: -9.13%"}, {"smiles": "Cc1ccc(S(=O)(=O)CCC(=O)NCc2ccccc2)cc1", "Potency": "inconclusive: 29.1 µM [falling, single point]"}, {"smiles": "COc1ccc(NC(=S)NC2CCN(Cc3ccccc3)CC2)cc1OC", "lipid storage change, negative = inhibition": "inconclusive: -5.01%"}, {"smiles": "COc1cc(/C=N/Nc2nc3ccccc3[nH]2)cc(OC)c1O", "Potency": "inconclusive: 29.1 µM [cytotoxic, single point]"}, {"smiles": "O=C(NCCS(=O)(=O)N1CCN(Cc2ccccc2)CC1)c1ccc(F)cc1", "lipid storage change, negative = inhibition": "inconclusive: 7.16%"}, {"smiles": "C/C=C/C(=O)N1CC2(CC(c3cccc(NC(=O)CCCCC)c3)=NO2)C[C@H]1C(N)=O", "note": "(stereo partly drawn)", "lipid storage change, negative = inhibition": "inactive"}, {"smiles": "O=C(NC(=S)NCCc1ccccc1)C1CCCCC1", "lipid storage change, negative = inhibition": "inconclusive: 13.2%"}, {"smiles": "CN1CCSc2ccc(C(=O)Nc3cc(F)ccc3F)cc21", "lipid storage change, negative = inhibition": "inconclusive: 8.92%"}, {"smiles": "O=C(NCCN1CCOCC1)c1cc2n(n1)C(C(F)(F)F)CC(c1ccc(F)cc1)N2", "note": "(stereo not drawn)", "lipid storage change, negative = inhibition": "inconclusive: 6.19%"}, {"smiles": "CSCCC(NC(=O)c1ccccc1Cl)C(=O)Nc1ccncc1", "note": "(stereo not drawn)", "lipid storage change, negative = inhibition": "inconclusive: 16.7%"}, {"smiles": "Cc1ccc(N2CCN(S(=O)(=O)N3CCCCC3)CC2)c(C)c1", "lipid storage change, negative = inhibition": "inactive"}, {"smiles": "O=C(CN1CCCCC1)Nc1cccc(Br)c1", "Potency": "active: 23.1 µM"}, {"smiles": "CCC(=O)NC(NC(=S)Nc1ccccc1Br)C(Cl)(Cl)Cl", "note": "(stereo not drawn)", "Potency": "inconclusive: 0.0731 µM [falling, full curve, poor fit]"}, {"smiles": "C=CCn1c(-c2csc(-c3ccc(OC)c(OC)c3)n2)n[nH]c1=S", "lipid storage change, negative = inhibition": "inconclusive: -43.2%"}, {"smiles": "CCCC(C(=O)NC1CCCC1)N(C(=O)Cn1nnc(-c2ccc(C)o2)n1)c1cccc(O)c1", "note": "(stereo not drawn)", "Potency": "inconclusive: 2.06 µM [activator, partial curve]"}, {"smiles": "CCN(CC)C(=O)CC(c1ccccc1)c1ccco1", "note": "(stereo not drawn)", "lipid storage change, negative = inhibition": "inconclusive: -75%"}, {"smiles": "NC(=O)CSc1nnc(-c2ccoc2)o1", "Potency": "inconclusive: 29.1 µM [falling, single point]"}, {"smiles": "CCCc1nnc(NC(=O)CCC(=O)NCCc2ccc(Cl)cc2)s1", "Potency": "inconclusive: 3.26 µM [activator, full curve]"}, {"smiles": "O=C(N/N=C/c1cccnc1)C12CC3CC(CC(C3)C1)C2", "lipid storage change, negative = inhibition": "inconclusive: 24.2%"}, {"smiles": "Cc1cc2oc(=O)cc(CN(C)Cc3cccc(F)c3)c2cc1C", "lipid storage change, negative = inhibition": "inconclusive: 19.2%"}, {"smiles": "O=C(CSc1ccccc1)NCC(c1ccco1)N1CCCCC1", "note": "(stereo not drawn)", "lipid storage change, negative = inhibition": "inconclusive: 8.32%"}, {"smiles": "CCOC(=O)c1c(NC(=O)c2ccccc2C)sc2c1CC(C)(C)OC2", "Potency": "inconclusive: 29.1 µM [activator, single point]"}, {"smiles": "Cc1ccc(C)c(NC(=O)NCCN2CCCCC2)c1", "Potency": "inconclusive: 32.6 µM [falling, partial curve, poor fit]"}, {"smiles": "CCOC(=O)c1c(C)[nH]c(C)c1C(=O)CSc1nc2ccccc2c(=O)n1-c1ccc(Cl)cc1", "Potency": "inconclusive: 29.1 µM [activator, single point]"}, {"smiles": "Cn1ncc(N2CCN(S(=O)(=O)c3ccc(Br)cc3)CC2)c(Cl)c1=O", "lipid storage change, negative = inhibition": "inconclusive: -7.68%"}, {"smiles": "CC(=O)N[C@@H](Cc1c[nH]c2ccccc12)C(=O)OCC(=O)NCc1ccc2c(c1)OCO2", "lipid storage change, negative = inhibition": "inconclusive: 16.2%"}, {"smiles": "COc1cc(CC(=O)Nc2ccccc2N2CCOCC2)cc(OC)c1OC", "Potency": "inconclusive: 1.64 µM [activator, partial curve]"}, {"smiles": "COc1ccc(-c2ccc(C#N)c(OC(=O)c3c(Cl)cccc3Cl)n2)cc1", "Potency": "inconclusive: 5.8 µM [activator, single point]"}, {"smiles": "CS(=O)(=O)Cc1cccc(C(=O)NC2CCSc3ccccc32)c1", "note": "(stereo not drawn)", "Potency": "inconclusive: 6.51 µM [activator, partial curve, poor fit]"}, {"smiles": "NC(=O)c1nc[nH]c1C(=O)Nc1cccc(C(F)(F)F)c1", "lipid storage change, negative = inhibition": "inconclusive: -24.3%"}, {"smiles": "O=C1NC(=S)S/C1=C\\c1ccc(SCc2ccco2)o1", "Potency": "inconclusive: 1.16 µM [falling, full curve]"}, {"smiles": "O=C(O)c1cc(S(=O)(=O)NC(CO)C(O)c2ccc([N+](=O)[O-])cc2)ccc1Br", "note": "(stereo not drawn)", "lipid storage change, negative = inhibition": "inconclusive: -35.1%"}, {"smiles": "CCOC(=O)c1c(NC(=O)COc2ncnc3ccccc23)sc(C(C)=O)c1C", "lipid storage change, negative = inhibition": "inconclusive: 6.52%"}, {"smiles": "CCCCn1c(N)c(N(CCC(C)C)C(=O)c2ccc3ccccc3c2)c(=O)[nH]c1=O", "lipid storage change, negative = inhibition": "inconclusive: -2.55%"}, {"smiles": "Cc1cc(NC(=O)c2ccco2)sc1C", "lipid storage change, negative = inhibition": "inconclusive: 22%"}, {"smiles": "CC1CN(CCS(=O)(=O)c2cc(Cl)ccc2Cl)CC(C)O1", "note": "(stereo not drawn)", "lipid storage change, negative = inhibition": "inconclusive: 290%"}, {"smiles": "O=C(NNC1CC(=O)N(c2ccccc2)C1=O)c1ccc(COc2ccccc2Cl)o1", "note": "(stereo not drawn)", "Potency": "inconclusive: 29.1 µM [activator, single point]"}, {"smiles": "COc1ccccc1CNC(=O)C(Cc1c[nH]c2ccccc12)NC(=O)OCc1ccccc1", "note": "(stereo not drawn)", "lipid storage change, negative = inhibition": "inconclusive: 46.3%"}, {"smiles": "COc1cccc(Cn2c(Oc3cccc(C)c3)nc3c2c(=O)n(C)c(=O)n3C)c1", "Potency": "inconclusive: 1.03 µM [activator, full curve]"}, {"smiles": "COc1ccccc1C(=O)Nc1nnc(S(=O)(=O)N2CCN(c3ccc(F)cc3)CC2)s1", "Potency": "inconclusive: 20.6 µM [activator, partial curve]"}, {"smiles": "CCOC(=O)N1CCN(CCC(=O)Nc2ccc(OC)cc2)CC1", "lipid storage change, negative = inhibition": "inconclusive: 14.9%"}, {"smiles": "CC(C)(C)c1ccc(C(=O)NCC(=O)OCC(=O)c2ccc3c(c2)-c2ccccc2C3)cc1", "lipid storage change, negative = inhibition": "inconclusive: -12.5%"}]}]}
